Data reported in US20140142352A1, “BUTANOL PURIFICATION” (BUTAMAX ADVANCED BIOFUELS LLC, priority 2012, published 2014).

Assays:
[1] = not given; remark: listed apart in the source
[2] = carbonate 1 %, feed isobutyric acid 1 g/L
[3] = carbonate 1 %, feed isobutyric acid 3 g/L
[4] = carbonate 1 %, feed isobutyric acid 10 g/L
[5] = carbonate 3 %, feed isobutyric acid 1 g/L
[6] = carbonate 3 %, feed isobutyric acid 3 g/L
[7] = carbonate 3 %, feed isobutyric acid 10 g/L
[8] = carbonate 10 %, feed isobutyric acid 1 g/L
[9] = carbonate 10 %, feed isobutyric acid 3 g/L
[10] = carbonate 10 %, feed isobutyric acid 10 g/L

SMILES | isobutyric acid concentration (total acid titration) [2] [g/L] | isobutyric acid concentration (total acid titration) [3] [g/L] | isobutyric acid concentration (total acid titration) [4] [g/L] | isobutyric acid concentration (total acid titration) [5] [g/L] | isobutyric acid concentration (total acid titration) [6] [g/L] | isobutyric acid concentration (total acid titration) [7] [g/L] | isobutyric acid concentration (total acid titration) [8] [g/L] | isobutyric acid concentration (total acid titration) [9] [g/L] | isobutyric acid concentration (total acid titration) [10] [g/L] | isobutyric acid in organic portion of the titrated distillate ([1]; Example 1a distillate titrated with 5 wt % NH3 solution until aqueous portion pH 9) [wt %] | isobutyric acid in organic portion of the distillate ([1]; solution titrated with 5 wt % NH3 solution to pH 8 before distillation)
O=C([O-])[O-].[K+].[K+] [Potassium Carbonate, potassium carbonate] | 0 | 1.8 | 9.1 | 0 | 0.4 | 6.7 | 0 | 0 | 1.4 | – | –
O=C([O-])[O-].[Na+].[Na+] [Sodium Carbonate, sodium carbonate] | 0.03 | 1.2 | 8.5 | 0 | 0.2 | 5.8 | 0 | 0 | 0.5 | – | –
N [ammonium hydroxide] | – | – | – | – | – | – | – | – | – | 0.1 | no detectable isobutyric acid

Like-named read-outs stand apart in the source and are kept apart here.
